In paper PMC2731163:
Results are given in words; binding and its absence hold for the method and conditions named. Binding seen in cells or lysates may run through a third protein. Some binding calls cover weakened binding; strength is not graded here.

Chains of the proteins cited; added tags and fusions are not shown.
UniProt Q12778: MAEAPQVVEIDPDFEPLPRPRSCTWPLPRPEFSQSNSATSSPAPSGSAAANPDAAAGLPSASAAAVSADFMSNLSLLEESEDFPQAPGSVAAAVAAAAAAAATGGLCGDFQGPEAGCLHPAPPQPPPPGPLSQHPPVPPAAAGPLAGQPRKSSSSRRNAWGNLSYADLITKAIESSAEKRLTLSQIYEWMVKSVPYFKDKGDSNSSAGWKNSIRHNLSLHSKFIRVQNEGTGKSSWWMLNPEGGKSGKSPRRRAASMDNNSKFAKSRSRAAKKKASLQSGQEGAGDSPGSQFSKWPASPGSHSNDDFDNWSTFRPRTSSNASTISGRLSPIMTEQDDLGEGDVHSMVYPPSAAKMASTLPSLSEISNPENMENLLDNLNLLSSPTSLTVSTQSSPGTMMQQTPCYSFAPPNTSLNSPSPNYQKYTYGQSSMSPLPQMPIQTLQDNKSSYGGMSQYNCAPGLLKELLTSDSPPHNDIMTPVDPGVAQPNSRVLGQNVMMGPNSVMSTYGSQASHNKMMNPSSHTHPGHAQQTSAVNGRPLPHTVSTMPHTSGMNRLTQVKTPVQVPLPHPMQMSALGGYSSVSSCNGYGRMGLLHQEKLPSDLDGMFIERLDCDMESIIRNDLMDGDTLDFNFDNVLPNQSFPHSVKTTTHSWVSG
UniProt P31270: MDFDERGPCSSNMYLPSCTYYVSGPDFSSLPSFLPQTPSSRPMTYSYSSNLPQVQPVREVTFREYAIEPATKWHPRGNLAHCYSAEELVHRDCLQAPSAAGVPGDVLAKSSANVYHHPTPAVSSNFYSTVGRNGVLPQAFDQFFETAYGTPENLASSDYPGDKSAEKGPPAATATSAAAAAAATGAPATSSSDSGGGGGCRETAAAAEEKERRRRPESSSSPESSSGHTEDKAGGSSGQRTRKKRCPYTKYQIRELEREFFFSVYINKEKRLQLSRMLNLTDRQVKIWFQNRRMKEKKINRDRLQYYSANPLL

Biological target: N-terminal Flag tagged human FOXO1A (human) (UniProt Q12778)
Experiment: co-IP; HeLa cells co-transfected with HoxA11-V5/His and Flag-FOXO1A (or empty pcDNA3.1(+)); whole cell lysate (420 mM NaCl, 1% Triton X-100) on M2 anti-FLAG agarose beads overnight at 4°C; without or with 50 U DNase and 2.5 µg RNase for 60 min at room temperature; washed with 10 mM Hepes, 150 mM NaCl, 0.5% Triton X-100; Western blot with anti-V5-HRP, re-probed with anti-Flag-HRP

binding: binds
Substance: HoxA11-V5/His fusion protein (from UniProt P31270 1-313)
